Experimental data from PubChem BioAssay AID246 (DTP/NCI, 2004).
The list does not hold the whole screen: it gathers tests that were run many times, whatever their T/C, doses with no T/C, and many T/C values between a quarter and a half above the control. Other doses and runs of a compound stand elsewhere. T/C: endpoint of the treated group in % of that of the vehicle group. Some entries give survivors of the animals treated and no T/C: the source files T/C as zero there, which appears to mark a toxic dose or a test without result, not a measured value. Some survivor counts are full or nearly so, which does not show that the dose was tolerated: survival well below the control is almost never listed, so the zero probably covers shortened survival too. Survivors were counted at the toxicity check, usually on the fifth day, unless a day is given; later deaths do not show. Schedules are NCI's codes, read here as Q, the interval in days (D) or hours (H), X, the number of doses. Some schedule codes hold Z or #, which are not explained here. Some entries were tested several times; the results are listed from low to high. Some structures stand for samples that the source files as different forms (salt, stereo form or complex); doses refer to the form tested. For survival time, this PubChem deposit counts one and a half times the control or more as active, and values a quarter to a half above the control carry no call in these data; other NCI protocols may use other cut-offs. Counts like (3×) give the number of equal values in this list. Some T/C values are followed by the survivors on the day toxicity was checked, most often the fifth; without a count, all were alive then.

System: BDF1 mice, P1081 chloroleukemia ip, survival T/C
Test: NCI In Vivo Anticancer Drug Screen. Data for tumor model P1081 Chloroleukemia (intraperitoneal) in B6D2F1 (BDF1) mice
Settings: T/C endpoint: mean survival time, higher T/C = longer survival
Protocol: The antitumor activity of compounds was measured in mice bearing transplantable tumors. Survival or tumor size were measured and the results are expressed as the measurement made in the treated group (T) divided by the measurement made in the vehicle treated control group (C). The tumor model used in this assay is P1081 Chloroleukemia (intraperitoneal) in B6D2F1 (BDF1) mice

[1] = dose: 1.25 mg/kg/injection, schedule: Q01DX Z (ip), vehicle: other
[2] = dose: 2.5 mg/kg/injection, schedule: Q01DX Z (ip), vehicle: other
[3] = dose: 2.0 mg/kg/injection, schedule: Q01DX Z (ip), vehicle: carboxymethylcellulose (CMC)
[4] = dose: 200.0 mg/kg/injection, schedule: Q01DX Z (ip), vehicle: carboxymethylcellulose (CMC)
[5] = dose: 7.8 mg/kg/injection, schedule: Q01DX Z (ip), vehicle: carboxymethylcellulose (CMC)
[6] = dose: 100.0 mg/kg/injection, schedule: Q01DX Z (ip), vehicle: carboxymethylcellulose (CMC)
[7] = dose: 25.0 mg/kg/injection, schedule: Q01DX Z (ip), vehicle: carboxymethylcellulose (CMC)
[8] = dose: 50.0 mg/kg/injection, schedule: Q01DX Z (ip), vehicle: carboxymethylcellulose (CMC)
[9] = dose: 6.3 mg/kg/injection, schedule: Q01DX Z (ip), vehicle: carboxymethylcellulose (CMC)
[10] = dose: 125.0 mg/kg/injection, schedule: Q01DX Z (ip), vehicle: carboxymethylcellulose (CMC)
[11] = dose: 250.0 mg/kg/injection, schedule: Q01DX Z (ip), vehicle: carboxymethylcellulose (CMC)
[12] = dose: 500.0 mg/kg/injection, schedule: Q01DX Z (ip), vehicle: carboxymethylcellulose (CMC)

SMILES: CN(Cc1cnc2nc(N)nc(N)c2n1)c1ccc(C(=O)N[C@@H](CCC(=O)O)C(=O)O)cc1
- T/C (dose: 0.12 mg/kg/injection, schedule: Q01DX Z (ip), vehicle: other): 147 % of control
- T/C (dose: 0.31 mg/kg/injection, schedule: Q01DX Z (ip), vehicle: other): 125 % of control
- T/C (dose: 0.38 mg/kg/injection, schedule: Q01DX010 (ip), vehicle: other): 136 and 145 % of control
- T/C (dose: 0.62 mg/kg/injection, schedule: Q01DX Z (ip), vehicle: other): 132 % of control
- T/C [1]: 115, 119 (2×), 172 % of control
- survivor count [1]: 6 of 6
- T/C [2]: 90 [5 of 6 alive] and 99 % of control
- survivor count [2]: 6 of 6
- survivor count (dose: 5.0 mg/kg/injection, schedule: Q01DX Z (ip), vehicle: other): 5 of 6 and 6 of 6
- survivor count (dose: 10.0 mg/kg/injection, schedule: Q01DX Z (ip), vehicle: other): 6 of 6

SMILES: Nc1nc(=S)c2[nH]cnc2[nH]1
- T/C (dose: 0.12 mg/kg/injection, schedule: Q01DX Z (ip), vehicle: carboxymethylcellulose (CMC)): 134 % of control
- T/C (dose: 0.5 mg/kg/injection, schedule: Q01DX Z (ip), vehicle: carboxymethylcellulose (CMC)): 147 % of control
- T/C (dose: 1.25 mg/kg/injection, schedule: Q01DX010 (ip), vehicle: other): 127 % of control
- survivor count [3]: 6 of 6
- survivor count (dose: 5.0 mg/kg/injection, schedule: Q01DX010 (ip), vehicle: other): 6 of 6
- survivor count (dose: 10.0 mg/kg/injection, schedule: Q01DX010 (ip), vehicle: other): 6 of 6
- T/C (dose: 125.0 micrograms/kg/injection, schedule: Q01DX Z (ip), vehicle: carboxymethylcellulose (CMC)): 146 % of control

SMILES: Cc1cc(N(CCCl)CCCl)ccc1N=Nc1ccccc1C(=O)O
- survivor count (dose: 40.0 mg/kg/injection, schedule: Q01DX010 (ip), vehicle: saline): 6 of 6
- survivor count (dose: 60.0 mg/kg/injection, schedule: Q01DX Z (ip), vehicle: carboxymethylcellulose (CMC)): 3 of 6
- survivor count (dose: 80.0 mg/kg/injection, schedule: Q01DX010 (ip), vehicle: saline): 6 of 6

SMILES: CO[C@@H]1[C@@H](OC2OC(C)C(OC3CC(C)(O)C(OC(=O)CC(C)C)C(C)O3)C(N(C)C)C2O)[C@@H](CC=O)C[C@@H](C)C(=O)/C=C/C2O[C@H]2C[C@@H](C)OC(=O)C[C@H]1OC(C)=O (stereo partly drawn)
- T/C (dose: 300.0 mg/kg/injection, schedule: Q01DX010 (ip), vehicle: saline): 125 % of control

SMILES: CCCCn1cnc2c(=S)nc[nH]c21
- T/C (dose: 32.0 mg/kg/injection, schedule: Q01DX010 (ip), vehicle: saline): 135 % of control
- T/C (dose: 64.0 mg/kg/injection, schedule: Q01DX010 (ip), vehicle: saline): 125 % of control
- survivor count [4]: 3 of 6

SMILES: O=C(Nc1ccc(C2=NCCCN2)cc1)c1ccc(NC(=O)c2ccc(C3=NCCCN3)cc2)cc1
- T/C [5]: 136 % of control

SMILES: CC(=O)Nc1ccc2nc3ccc(NC(C)=O)cc3[n+](-c3ccccc3)c2c1
- survivor count [6]: 6 of 6

SMILES: CN(N=O)C(=O)NC(C=O)C(O)C(O)C(O)CO (stereo not drawn)
- survivor count (dose: 400.0 mg/kg/injection, schedule: Q01DX Z (ip), vehicle: saline): 5 of 6

SMILES: Nc1ncnc2[nH]ncc12
- survivor count (dose: 6.25 mg/kg/injection, schedule: Q01DX Z (ip), vehicle: carboxymethylcellulose (CMC)): 3 of 6
- survivor count (dose: 12.5 mg/kg/injection, schedule: Q01DX Z (ip), vehicle: carboxymethylcellulose (CMC)): 5 of 6
- survivor count [7]: 5 of 6
- survivor count [8]: 0 of 6

SMILES: COc1cc2c(cc1I)-c1c(cc(OC)c(OC)c1OC)CC[C@@H]2NC(C)=O
- survivor count (dose: 338.0 mg/kg/injection, schedule: Q01DX010 (ip), vehicle: saline): 4 of 6
- survivor count (dose: 507.0 mg/kg/injection, schedule: Q01DX010 (ip), vehicle: saline): 5 of 6

SMILES: CN(C)c1ccc(/C=C/c2ccnc3ccccc23)cc1
- survivor count (dose: 12.5 mg/kg/injection, schedule: Q01DX Z (ip), vehicle: water): 6 of 6
- survivor count (dose: 25.0 mg/kg/injection, schedule: Q01DX Z (ip), vehicle: water): 6 of 6
- survivor count (dose: 50.0 mg/kg/injection, schedule: Q01DX Z (ip), vehicle: water): 5 of 6
- survivor count (dose: 100.0 mg/kg/injection, schedule: Q01DX Z (ip), vehicle: water): 1 of 6
- survivor count [4]: 6 of 6
- survivor count (dose: 400.0 mg/kg/injection, schedule: Q01DX Z (ip), vehicle: carboxymethylcellulose (CMC)): 5 of 6

SMILES: CCCSc1ncnc2nc[nH]c12
- T/C [7]: 131 % of control
- survivor count [7]: 6 of 6
- T/C [8]: 143 % of control
- survivor count [8]: 6 of 6
- survivor count [4]: 1 of 6 and 3 of 6

SMILES: NC(=O)N(CCCl)N=O
- survivor count [3]: 5 of 6
- survivor count (dose: 32.0 mg/kg/injection, schedule: Q01DX Z (ip), vehicle: carboxymethylcellulose (CMC)): 6 of 6
- survivor count (dose: 64.0 mg/kg/injection, schedule: Q01DX Z (ip), vehicle: carboxymethylcellulose (CMC)): 0 of 6

SMILES: Nc1ncnc2c1ccn2C1OC(CO)C(O)C1O (stereo not drawn)
- survivor count (dose: 2.5 mg/kg/injection, schedule: Q01DX Z (ip), vehicle: carboxymethylcellulose (CMC)): 6 of 6

SMILES: C[n+]1c2ccccc2nc2c(N)cc(N)cc21
- survivor count (dose: 0.8 mg/kg/injection, schedule: Q01DX Z (ip), vehicle: carboxymethylcellulose (CMC)): 6 of 6
- survivor count (dose: 3.1 mg/kg/injection, schedule: Q01DX Z (ip), vehicle: carboxymethylcellulose (CMC)): 6 of 6
- T/C [9]: 136 % of control
- survivor count [9]: 6 of 6
- survivor count [8]: 0 of 6

SMILES: CN(C)[C@@H]1C(=O)C(C(N)=O)=C(O)[C@@]2(O)C(=O)C3=C(O)c4c(O)cccc4C[C@H]3C[C@@H]12
- survivor count (dose: 60.0 mg/kg/injection, schedule: Q01DX010 (ip), vehicle: saline): 7 of 7
- survivor count (dose: 120.0 mg/kg/injection, schedule: Q01DX010 (ip), vehicle: saline): 0 of 7

SMILES: c1ccc(CNc2ncnc3[nH]ncc23)cc1
- survivor count [5]: 6 of 6
- survivor count (dose: 15.6 mg/kg/injection, schedule: Q01DX Z (ip), vehicle: carboxymethylcellulose (CMC)): 6 of 6
- survivor count (dose: 31.2 mg/kg/injection, schedule: Q01DX Z (ip), vehicle: carboxymethylcellulose (CMC)): 5 of 6
- survivor count (dose: 62.5 mg/kg/injection, schedule: Q01DX Z (ip), vehicle: carboxymethylcellulose (CMC)): 0 of 6

SMILES: CN(Cc1cnc2nc(N)nc(N)c2n1)c1c(Cl)cc(C(=O)NC(CCC(=O)O)C(=O)O)cc1Cl (stereo not drawn)
- T/C [8]: 130 % of control
- survivor count [6]: 5 of 6

SMILES: CCOC(=O)NP(=O)(N1CC1(C)C)N1CC1(C)C (stereo not drawn)
- T/C [10]: 150, 196, 202 % of control
- survivor count [10]: 3 of 6 and 6 of 6
- T/C [11]: 142, 186, 225 % of control
- survivor count [11]: 0 of 6
- T/C [12]: 130 % of control
- survivor count [12]: 2 of 6 and 6 of 6
- survivor count (dose: 1000.0 mg/kg/injection, schedule: Q01DX Z (ip), vehicle: carboxymethylcellulose (CMC)): 0 of 6
